Data taken from article doi:10.1101/2021.01.21.427388.
Where two headings read alike, the source gives them in different places. No constants are given. Whether binding was seen depends on the method and setting. In cells and extracts the contact can be indirect.

The chains behind the UniProt entries cited, without tags or fusion partners.
UniProt Q92508: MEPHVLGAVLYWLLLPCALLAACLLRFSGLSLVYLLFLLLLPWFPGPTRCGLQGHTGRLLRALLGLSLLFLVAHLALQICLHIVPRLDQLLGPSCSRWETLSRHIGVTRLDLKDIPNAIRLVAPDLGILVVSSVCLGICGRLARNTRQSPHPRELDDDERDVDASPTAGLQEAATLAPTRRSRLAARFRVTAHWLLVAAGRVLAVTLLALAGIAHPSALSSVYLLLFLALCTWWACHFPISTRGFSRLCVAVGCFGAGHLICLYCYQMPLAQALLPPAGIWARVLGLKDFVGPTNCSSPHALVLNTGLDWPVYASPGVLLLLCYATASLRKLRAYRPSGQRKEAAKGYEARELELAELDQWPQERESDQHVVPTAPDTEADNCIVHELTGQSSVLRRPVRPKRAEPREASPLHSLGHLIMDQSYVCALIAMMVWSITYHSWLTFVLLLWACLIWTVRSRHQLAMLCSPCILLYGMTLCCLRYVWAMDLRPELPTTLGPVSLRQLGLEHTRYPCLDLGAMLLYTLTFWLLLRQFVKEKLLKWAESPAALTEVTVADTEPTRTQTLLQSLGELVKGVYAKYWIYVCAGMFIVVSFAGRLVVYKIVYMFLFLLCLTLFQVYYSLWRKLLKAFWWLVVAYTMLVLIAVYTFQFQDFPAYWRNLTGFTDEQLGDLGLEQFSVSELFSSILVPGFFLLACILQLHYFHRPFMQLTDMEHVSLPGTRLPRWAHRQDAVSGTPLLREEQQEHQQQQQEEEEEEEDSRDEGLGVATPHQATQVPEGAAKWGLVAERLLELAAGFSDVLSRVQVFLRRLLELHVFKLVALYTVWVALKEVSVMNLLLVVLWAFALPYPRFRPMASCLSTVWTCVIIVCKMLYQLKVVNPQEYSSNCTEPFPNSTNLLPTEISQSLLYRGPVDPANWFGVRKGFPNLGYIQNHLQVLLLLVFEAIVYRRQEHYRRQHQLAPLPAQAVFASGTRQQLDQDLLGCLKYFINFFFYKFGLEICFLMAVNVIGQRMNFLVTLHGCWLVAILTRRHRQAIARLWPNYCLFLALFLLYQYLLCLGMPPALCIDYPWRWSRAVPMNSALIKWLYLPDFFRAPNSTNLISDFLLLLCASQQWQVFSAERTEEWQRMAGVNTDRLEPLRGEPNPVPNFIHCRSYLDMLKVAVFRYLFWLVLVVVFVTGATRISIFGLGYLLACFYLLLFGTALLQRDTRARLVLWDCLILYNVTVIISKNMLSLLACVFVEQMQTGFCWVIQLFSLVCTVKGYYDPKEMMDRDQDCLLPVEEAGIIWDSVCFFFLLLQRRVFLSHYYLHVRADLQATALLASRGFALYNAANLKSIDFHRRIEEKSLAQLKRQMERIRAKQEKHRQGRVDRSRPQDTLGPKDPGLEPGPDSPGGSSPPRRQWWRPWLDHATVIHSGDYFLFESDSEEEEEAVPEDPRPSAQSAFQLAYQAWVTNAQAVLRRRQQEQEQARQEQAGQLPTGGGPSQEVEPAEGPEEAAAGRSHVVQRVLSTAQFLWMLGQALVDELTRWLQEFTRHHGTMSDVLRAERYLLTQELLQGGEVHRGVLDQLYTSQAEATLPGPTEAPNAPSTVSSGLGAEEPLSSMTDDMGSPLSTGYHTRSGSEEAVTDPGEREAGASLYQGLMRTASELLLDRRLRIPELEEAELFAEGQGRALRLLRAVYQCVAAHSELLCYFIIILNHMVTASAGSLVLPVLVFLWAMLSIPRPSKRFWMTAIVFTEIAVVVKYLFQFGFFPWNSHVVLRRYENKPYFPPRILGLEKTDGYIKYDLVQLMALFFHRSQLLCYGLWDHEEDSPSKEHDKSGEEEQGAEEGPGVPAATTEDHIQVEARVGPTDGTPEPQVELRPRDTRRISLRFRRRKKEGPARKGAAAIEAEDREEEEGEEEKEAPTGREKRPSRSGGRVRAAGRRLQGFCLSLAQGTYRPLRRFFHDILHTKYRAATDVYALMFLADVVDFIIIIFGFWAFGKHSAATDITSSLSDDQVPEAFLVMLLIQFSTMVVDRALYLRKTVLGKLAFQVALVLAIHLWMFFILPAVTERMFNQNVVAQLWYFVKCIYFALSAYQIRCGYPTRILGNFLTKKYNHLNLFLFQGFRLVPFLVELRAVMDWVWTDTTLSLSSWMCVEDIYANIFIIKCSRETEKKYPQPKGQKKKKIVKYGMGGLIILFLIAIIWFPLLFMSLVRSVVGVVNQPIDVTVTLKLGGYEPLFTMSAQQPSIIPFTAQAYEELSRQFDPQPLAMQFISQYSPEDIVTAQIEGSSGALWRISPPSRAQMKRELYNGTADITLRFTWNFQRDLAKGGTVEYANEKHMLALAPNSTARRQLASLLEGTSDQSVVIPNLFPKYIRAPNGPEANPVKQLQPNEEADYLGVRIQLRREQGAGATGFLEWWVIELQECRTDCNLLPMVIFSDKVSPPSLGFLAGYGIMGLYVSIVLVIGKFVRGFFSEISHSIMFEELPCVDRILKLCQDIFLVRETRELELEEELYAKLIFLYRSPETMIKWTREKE
UniProt Q12791: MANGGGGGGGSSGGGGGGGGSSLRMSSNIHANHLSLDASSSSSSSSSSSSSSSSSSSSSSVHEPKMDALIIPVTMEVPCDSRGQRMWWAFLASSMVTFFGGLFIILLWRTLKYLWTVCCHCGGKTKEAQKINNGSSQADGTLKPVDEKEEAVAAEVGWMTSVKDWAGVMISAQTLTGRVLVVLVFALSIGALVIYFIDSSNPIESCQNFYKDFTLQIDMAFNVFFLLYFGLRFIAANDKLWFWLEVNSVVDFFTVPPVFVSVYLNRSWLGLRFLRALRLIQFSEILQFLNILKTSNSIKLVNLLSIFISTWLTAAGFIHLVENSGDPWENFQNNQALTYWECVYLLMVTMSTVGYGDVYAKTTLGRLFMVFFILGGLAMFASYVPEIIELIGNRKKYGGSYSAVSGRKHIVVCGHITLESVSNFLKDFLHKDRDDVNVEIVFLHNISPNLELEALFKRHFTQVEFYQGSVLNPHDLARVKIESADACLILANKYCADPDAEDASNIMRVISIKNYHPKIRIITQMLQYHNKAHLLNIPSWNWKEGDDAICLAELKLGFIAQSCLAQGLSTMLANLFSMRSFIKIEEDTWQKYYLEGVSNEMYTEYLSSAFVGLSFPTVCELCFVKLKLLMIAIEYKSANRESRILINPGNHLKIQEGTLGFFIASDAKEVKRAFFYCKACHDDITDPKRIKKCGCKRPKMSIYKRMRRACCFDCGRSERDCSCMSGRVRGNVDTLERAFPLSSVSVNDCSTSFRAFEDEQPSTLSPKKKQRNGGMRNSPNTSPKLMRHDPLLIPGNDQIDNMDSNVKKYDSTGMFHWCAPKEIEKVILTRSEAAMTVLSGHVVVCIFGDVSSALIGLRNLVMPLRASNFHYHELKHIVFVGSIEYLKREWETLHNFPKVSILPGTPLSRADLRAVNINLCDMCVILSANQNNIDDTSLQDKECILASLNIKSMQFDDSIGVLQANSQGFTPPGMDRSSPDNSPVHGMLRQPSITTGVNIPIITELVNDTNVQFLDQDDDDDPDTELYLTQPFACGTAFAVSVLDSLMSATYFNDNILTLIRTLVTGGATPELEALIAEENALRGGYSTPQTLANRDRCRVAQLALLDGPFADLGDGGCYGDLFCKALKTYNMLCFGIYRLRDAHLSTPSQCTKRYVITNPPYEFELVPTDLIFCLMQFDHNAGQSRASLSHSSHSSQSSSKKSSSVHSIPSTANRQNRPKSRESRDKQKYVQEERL

Key:
Assay in all cases: co-IP
[1] = biological target: Piezo1 (human (endogenous in human atrial fibroblasts)) (UniProt Q92508)
[2] = biological target: Piezo1 (human (endogenous in human atrial fibroblasts)) (UniProt Q92508); remark: listed apart in the source
[3] = biological target: Ca2+-activated potassium channel of large conductance (BKCa) (human (endogenous in human atrial fibroblasts)) (UniProt Q12791)
[4] = biological target: Ca2+-activated potassium channel of large conductance (BKCa) (human (endogenous in human atrial fibroblasts)) (UniProt Q12791); remark: listed apart in the source

Row | binding [1] | binding [2] | binding [3] | binding [4] | Substance
1 | no binding | no binding |  |  | Ca2+-activated potassium channel of large conductance (BKCa) (from UniProt Q12791 1-1236)
2 |  |  | no binding | no binding | Piezo1 (from UniProt Q92508 1-2521)
